Data source: PubChem BioAssay AID1259289 (Sanger Institute, 2017)
Screen: 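Find kinases whose loss adds to targeted drugs in killing bowel cancer cells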 (primary screen). System: human LS513 colorectal cancer cells. Knock-down reagent: siRNA pool against human genes. Conditions: anchor drug BYL719 at 1 µM, cetuximab at 5 µg/ml or trametinib at 10 nM, or DMSO vehicle alone; exposure time not given. Measured: 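Survival versus non-targeting pool for each arm averaged over replicates, robust z-score in the arm with DMSO only, and synergy scores for BYL719, cetuximab or trametinib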. Reading the numbers: robust z-score, siRNA alone (DMSO): higher = more viable cells; strongly negative means essential; viability with DMSO vs control: higher = more viable cells. Units: viability with DMSO vs control in fraction of control. Call rule: 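Called essential when silencing alone under DMSO gives a robust z-score below -3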. Meaning of the calls: active = essential (knock-down alone); inactive = not essential.
Here is an unselected part of 794 reagents. 16 of them (2%) count as active. 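Active marks cell loss from silencing alone; drug synergy shows only in the synergy scores, not the calls.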 Viability is capped at 1. Further read-outs or replicates are left out here. Not stated in the record: the amount of reagent, the time to read-out.

ADCK1 (aarF domain containing kinase 1) gave robust z-score, siRNA alone (DMSO) = 0.561; viability with DMSO vs control 1; inactive. NTRK2 (neurotrophic receptor tyrosine kinase 2) gave robust z-score, siRNA alone (DMSO) = 0.561; viability with DMSO vs control 1; inactive. NME4 (NME/NM23 nucleoside diphosphate kinase 4) showed robust z-score, siRNA alone (DMSO) = 0.561; viability with DMSO vs control 1; inactive. ERBB2 (erb-b2 receptor tyrosine kinase 2) gave robust z-score, siRNA alone (DMSO) = 0.561; viability with DMSO vs control 1; inactive. After knock-down of IP6K3 (inositol hexakisphosphate kinase 3), the screen gave robust z-score, siRNA alone (DMSO) = -2.74; viability with DMSO vs control 0.531; inactive. For SRPK2 (SRSF protein kinase 2), the values are robust z-score, siRNA alone (DMSO) = 0.561; viability with DMSO vs control 1; inactive.

Silencing of ABL2 (ABL proto-oncogene 2, non-receptor tyrosine kinase) gave: robust z-score, siRNA alone (DMSO) = 0.561; viability with DMSO vs control 1; inactive. For PRKG2 (protein kinase cGMP-dependent 2), the values are robust z-score, siRNA alone (DMSO) = 0.561; viability with DMSO vs control 1; inactive. Against AXL (AXL receptor tyrosine kinase) the deposit lists robust z-score, siRNA alone (DMSO) = 0.561; viability with DMSO vs control 1; inactive. After knock-down of IRAK3 (interleukin 1 receptor associated kinase 3), the record shows robust z-score, siRNA alone (DMSO) = -1.88; viability with DMSO vs control 0.653; inactive. RPS6KC1 (ribosomal protein S6 kinase C1) gave robust z-score, siRNA alone (DMSO) = 0.561; viability with DMSO vs control 1; inactive. For TBCK (TBC1 domain containing kinase), the entry reads robust z-score, siRNA alone (DMSO) = 0.561; viability with DMSO vs control 1; inactive.

After knock-down of SOX9 (SRY-box transcription factor 9), the screen gave robust z-score, siRNA alone (DMSO) = 0.561; viability with DMSO vs control 1; inactive. PKLR (pyruvate kinase L/R) scored robust z-score, siRNA alone (DMSO) = -0.0178; viability with DMSO vs control 0.918; inactive. With knock-down of PI4K2B (phosphatidylinositol 4-kinase type 2 beta), the screen gave robust z-score, siRNA alone (DMSO) = 0.561; viability with DMSO vs control 1; inactive. AKAP9 (A-kinase anchoring protein 9) showed robust z-score, siRNA alone (DMSO) = -0.236; viability with DMSO vs control 0.887; inactive. For GALK1 (galactokinase 1), the entry reads robust z-score, siRNA alone (DMSO) = -1.05; viability with DMSO vs control 0.771; inactive. For MAP3K12 (mitogen-activated protein kinase kinase kinase 12) the deposit lists robust z-score, siRNA alone (DMSO) = -0.045; viability with DMSO vs control 0.914; inactive.

For PRKD1 (protein kinase D1) the deposit lists robust z-score, siRNA alone (DMSO) = 0.561; viability with DMSO vs control 1; inactive.

Entries listed so far whose gene name begins with I or i:
IP6K3 (inositol hexakisphosphate kinase 3) | robust z-score, siRNA alone (DMSO): -2.74; viability with DMSO vs control: 0.531; call: inactive
IRAK3 (interleukin 1 receptor associated kinase 3) | robust z-score, siRNA alone (DMSO): -1.88; viability with DMSO vs control: 0.653; call: inactive
